# Measurements taken from the supplement of paper PMC6411743.
# ± gives the standard deviation of the averaged measurements. The list shows a part of the results.
# Legend:
# Test in all cases: NP40-soluble protein abundance relative to vehicle (solubility fold change) (ratio); higher = more soluble protein in presence of GTP
# CAMLG = target: T1, CAMLG (UniProt P49069)
# T1 sequence (whole entry): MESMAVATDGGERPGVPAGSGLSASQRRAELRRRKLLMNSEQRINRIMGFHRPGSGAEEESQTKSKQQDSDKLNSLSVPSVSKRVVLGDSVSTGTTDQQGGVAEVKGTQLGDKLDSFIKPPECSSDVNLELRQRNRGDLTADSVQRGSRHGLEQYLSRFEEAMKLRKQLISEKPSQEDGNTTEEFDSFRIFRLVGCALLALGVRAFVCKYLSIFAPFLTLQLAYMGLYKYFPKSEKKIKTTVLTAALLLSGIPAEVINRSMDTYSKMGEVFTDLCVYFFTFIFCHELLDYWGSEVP
# Summary of the method: (§1)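 Values are fold changes against the detergent-processed vehicle, based on vsn-normalised intensities. Jurkat crude lysate was treated at eight concentrations from 0.1 to 10 mM (10 min at room temperature, then 3 min at 37 °C), solubilised with 0.8% NP40 and benzonase, ultracentrifuged and analysed by TMT-labelled LC-MS/MS over three independent experiments.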
# GALNS = target: T2, GALNS (UniProt P34059)
# T2 sequence (whole entry): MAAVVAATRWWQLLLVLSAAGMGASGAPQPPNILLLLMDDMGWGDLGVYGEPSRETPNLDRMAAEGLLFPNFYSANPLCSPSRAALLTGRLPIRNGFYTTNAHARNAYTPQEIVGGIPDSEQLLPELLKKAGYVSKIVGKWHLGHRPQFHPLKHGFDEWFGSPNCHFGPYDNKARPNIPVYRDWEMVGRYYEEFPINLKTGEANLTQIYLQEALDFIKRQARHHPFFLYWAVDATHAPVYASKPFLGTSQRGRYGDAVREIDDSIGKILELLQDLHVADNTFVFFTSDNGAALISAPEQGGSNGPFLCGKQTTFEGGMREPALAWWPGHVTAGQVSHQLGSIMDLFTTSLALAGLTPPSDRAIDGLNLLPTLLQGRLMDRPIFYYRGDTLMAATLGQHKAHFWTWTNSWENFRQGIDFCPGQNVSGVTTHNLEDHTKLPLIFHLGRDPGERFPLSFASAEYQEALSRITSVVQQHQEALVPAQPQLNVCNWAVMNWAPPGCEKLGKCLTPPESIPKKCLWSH
# Summary of the method: as §1
# GLRX = target: T3, GLRX (UniProt P35754)
# T3 sequence (whole entry): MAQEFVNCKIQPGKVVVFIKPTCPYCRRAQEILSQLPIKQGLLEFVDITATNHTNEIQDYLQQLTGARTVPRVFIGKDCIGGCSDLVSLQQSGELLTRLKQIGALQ
# Summary of the method: as §1
# MDH2 = target: T4, MDH2 (UniProt P40926)
# T4 sequence (whole entry): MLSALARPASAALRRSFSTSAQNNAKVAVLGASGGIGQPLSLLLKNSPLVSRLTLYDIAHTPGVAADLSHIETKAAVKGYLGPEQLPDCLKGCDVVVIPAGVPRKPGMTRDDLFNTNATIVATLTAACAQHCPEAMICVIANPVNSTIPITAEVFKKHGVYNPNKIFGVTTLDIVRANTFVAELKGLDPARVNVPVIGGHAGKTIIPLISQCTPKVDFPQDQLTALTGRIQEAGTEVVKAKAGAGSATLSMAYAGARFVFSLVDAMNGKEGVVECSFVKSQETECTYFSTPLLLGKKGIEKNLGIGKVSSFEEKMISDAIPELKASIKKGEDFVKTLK
# Summary of the method: as §1
# TMED10 = target: T5, TMED10 (UniProt P49755)
# T5 sequence (whole entry): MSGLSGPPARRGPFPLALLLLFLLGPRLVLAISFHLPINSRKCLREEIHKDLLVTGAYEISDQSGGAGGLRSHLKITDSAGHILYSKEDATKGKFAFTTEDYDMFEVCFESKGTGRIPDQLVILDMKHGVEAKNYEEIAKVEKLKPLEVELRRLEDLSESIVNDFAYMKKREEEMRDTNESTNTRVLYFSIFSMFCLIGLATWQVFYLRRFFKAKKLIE
# Summary of the method: as §1
# UQCRFS1 = target: T6, UQCRFS1 (UniProt P47985)
# T6 sequence (whole entry): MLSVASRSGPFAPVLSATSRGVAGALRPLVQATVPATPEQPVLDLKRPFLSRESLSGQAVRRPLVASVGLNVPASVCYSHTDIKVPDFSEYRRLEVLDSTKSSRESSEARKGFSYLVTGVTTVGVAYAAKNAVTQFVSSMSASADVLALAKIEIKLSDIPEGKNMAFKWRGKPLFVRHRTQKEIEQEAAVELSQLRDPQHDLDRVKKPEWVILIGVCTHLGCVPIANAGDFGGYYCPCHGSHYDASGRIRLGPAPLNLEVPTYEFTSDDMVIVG
# Summary of the method: as §1
smiles,measurement,setting,value
Nc1nc2c(ncn2[C@@H]2O[C@H](COP(=O)(O)OP(=O)(O)OP(=O)(O)O)[C@@H](O)[C@H]2O)c(=O)[nH]1 [guanosine triphosphate],NP40-soluble protein abundance,CAMLG; concentration: 0.1mM,0.947 ± 0.1
same,NP40-soluble protein abundance,CAMLG; concentration: 0.5mM,0.954 ± 0.069
same,NP40-soluble protein abundance,CAMLG; concentration: 1mM,0.965 ± 0.066
same,NP40-soluble protein abundance,CAMLG; concentration: 2mM,0.999 ± 0.13
same,NP40-soluble protein abundance,CAMLG; concentration: 4mM,0.955 ± 0.11
same,NP40-soluble protein abundance,CAMLG; concentration: 6mM,0.924 ± 0.1
same,NP40-soluble protein abundance,CAMLG; concentration: 8mM,0.963 ± 0.053
same,NP40-soluble protein abundance,CAMLG; concentration: 10mM,0.975 ± 0.077
same,NP40-soluble protein abundance,GALNS; concentration: 0.1mM,1.08 ± 0.24
same,NP40-soluble protein abundance,GALNS; concentration: 0.5mM,1.13 ± 0.22
same,NP40-soluble protein abundance,GALNS; concentration: 1mM,1.07 ± 0.28
same,NP40-soluble protein abundance,GALNS; concentration: 2mM,1.16 ± 0.31
same,NP40-soluble protein abundance,GALNS; concentration: 4mM,1.06 ± 0.42
same,NP40-soluble protein abundance,GALNS; concentration: 6mM,1.1 ± 0.3
same,NP40-soluble protein abundance,GALNS; concentration: 8mM,1 ± 0.16
same,NP40-soluble protein abundance,GALNS; concentration: 10mM,1.02 ± 0.28
same,NP40-soluble protein abundance,GLRX; concentration: 0.1mM,0.945 ± 0.083
same,NP40-soluble protein abundance,GLRX; concentration: 0.5mM,0.884 ± 0.025
same,NP40-soluble protein abundance,GLRX; concentration: 1mM,1.02 ± 0.073
same,NP40-soluble protein abundance,GLRX; concentration: 2mM,0.984 ± 0.012
same,NP40-soluble protein abundance,GLRX; concentration: 4mM,0.969 ± 0.058
same,NP40-soluble protein abundance,GLRX; concentration: 6mM,0.982 ± 0.046
same,NP40-soluble protein abundance,GLRX; concentration: 8mM,0.943 ± 0.071
same,NP40-soluble protein abundance,GLRX; concentration: 10mM,1.04 ± 0.059
same,NP40-soluble protein abundance,MDH2; concentration: 0.1mM,0.902 ± 0.1
same,NP40-soluble protein abundance,MDH2; concentration: 0.5mM,0.908 ± 0.091
same,NP40-soluble protein abundance,MDH2; concentration: 1mM,0.872 ± 0.1
same,NP40-soluble protein abundance,MDH2; concentration: 2mM,0.825 ± 0.082
same,NP40-soluble protein abundance,MDH2; concentration: 4mM,0.838 ± 0.098
same,NP40-soluble protein abundance,MDH2; concentration: 6mM,0.829 ± 0.074
same,NP40-soluble protein abundance,MDH2; concentration: 8mM,0.828 ± 0.1
same,NP40-soluble protein abundance,MDH2; concentration: 10mM,0.826 ± 0.09
same,NP40-soluble protein abundance,TMED10; concentration: 0.1mM,0.973 ± 0.045
same,NP40-soluble protein abundance,TMED10; concentration: 0.5mM,0.989 ± 0.025
same,NP40-soluble protein abundance,TMED10; concentration: 1mM,0.924 ± 0.045
same,NP40-soluble protein abundance,TMED10; concentration: 2mM,0.901 ± 0.037
same,NP40-soluble protein abundance,TMED10; concentration: 4mM,0.892 ± 0.047
same,NP40-soluble protein abundance,TMED10; concentration: 6mM,0.882 ± 0.037
same,NP40-soluble protein abundance,TMED10; concentration: 8mM,0.893 ± 0.047
same,NP40-soluble protein abundance,TMED10; concentration: 10mM,0.847 ± 0.062
same,NP40-soluble protein abundance,UQCRFS1; concentration: 0.1mM,0.971 ± 0.036
same,NP40-soluble protein abundance,UQCRFS1; concentration: 0.5mM,1.01 ± 0.04
same,NP40-soluble protein abundance,UQCRFS1; concentration: 1mM,0.942 ± 0.021
same,NP40-soluble protein abundance,UQCRFS1; concentration: 2mM,0.907 ± 0.015

# Three records picked at random from those above, as already listed:
smiles,measurement,setting,value
Nc1nc2c(ncn2[C@@H]2O[C@H](COP(=O)(O)OP(=O)(O)OP(=O)(O)O)[C@@H](O)[C@H]2O)c(=O)[nH]1 [guanosine triphosphate],NP40-soluble protein abundance,GALNS; concentration: 2mM,1.16 ± 0.31
same,NP40-soluble protein abundance,GLRX; concentration: 0.5mM,0.884 ± 0.025
same,NP40-soluble protein abundance,GALNS; concentration: 1mM,1.07 ± 0.28
